Results are given in words; binding and its absence hold for the method and conditions named. Some binding calls cover weakened binding; strength is not graded here.
What was measured:
Test in all cases: flow cytometry on transfected Hek-293T cells
CD39 mutant 2B (human) = target: T1, CD39 mutant 2B (human) (UniProt P49961)
T1 sequence: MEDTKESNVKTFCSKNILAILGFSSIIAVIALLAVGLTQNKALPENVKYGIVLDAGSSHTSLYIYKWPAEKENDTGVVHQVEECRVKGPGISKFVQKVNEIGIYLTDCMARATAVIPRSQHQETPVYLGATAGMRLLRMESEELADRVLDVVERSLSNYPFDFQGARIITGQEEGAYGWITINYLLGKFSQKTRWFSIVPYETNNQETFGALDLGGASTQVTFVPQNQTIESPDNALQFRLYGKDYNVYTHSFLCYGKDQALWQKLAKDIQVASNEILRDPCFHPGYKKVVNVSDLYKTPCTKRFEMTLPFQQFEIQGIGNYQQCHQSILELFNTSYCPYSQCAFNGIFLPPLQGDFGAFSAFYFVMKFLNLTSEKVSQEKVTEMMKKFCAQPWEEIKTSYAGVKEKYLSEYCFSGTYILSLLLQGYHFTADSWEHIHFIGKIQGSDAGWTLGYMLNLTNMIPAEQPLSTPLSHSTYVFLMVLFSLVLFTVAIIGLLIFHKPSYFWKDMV

CD39 mutant 18 (human) = target: T2, CD39 mutant 18 (human) (UniProt P49961)
T2 sequence: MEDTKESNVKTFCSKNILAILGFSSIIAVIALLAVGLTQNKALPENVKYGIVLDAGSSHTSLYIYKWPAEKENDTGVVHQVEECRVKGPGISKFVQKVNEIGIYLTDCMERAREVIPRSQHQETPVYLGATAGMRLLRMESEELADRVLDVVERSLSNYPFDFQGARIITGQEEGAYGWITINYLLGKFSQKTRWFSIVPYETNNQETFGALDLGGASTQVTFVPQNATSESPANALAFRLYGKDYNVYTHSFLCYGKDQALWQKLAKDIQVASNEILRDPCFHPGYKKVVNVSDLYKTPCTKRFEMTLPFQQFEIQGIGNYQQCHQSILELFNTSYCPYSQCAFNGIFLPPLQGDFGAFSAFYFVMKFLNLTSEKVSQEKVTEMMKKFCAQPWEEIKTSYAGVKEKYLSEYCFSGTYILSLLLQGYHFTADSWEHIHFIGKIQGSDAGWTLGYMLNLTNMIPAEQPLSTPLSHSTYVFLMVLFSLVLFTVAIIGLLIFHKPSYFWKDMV

CD39 mutant 10A (human) = target: T3, CD39 mutant 10A (human) (UniProt P49961)
T3 sequence: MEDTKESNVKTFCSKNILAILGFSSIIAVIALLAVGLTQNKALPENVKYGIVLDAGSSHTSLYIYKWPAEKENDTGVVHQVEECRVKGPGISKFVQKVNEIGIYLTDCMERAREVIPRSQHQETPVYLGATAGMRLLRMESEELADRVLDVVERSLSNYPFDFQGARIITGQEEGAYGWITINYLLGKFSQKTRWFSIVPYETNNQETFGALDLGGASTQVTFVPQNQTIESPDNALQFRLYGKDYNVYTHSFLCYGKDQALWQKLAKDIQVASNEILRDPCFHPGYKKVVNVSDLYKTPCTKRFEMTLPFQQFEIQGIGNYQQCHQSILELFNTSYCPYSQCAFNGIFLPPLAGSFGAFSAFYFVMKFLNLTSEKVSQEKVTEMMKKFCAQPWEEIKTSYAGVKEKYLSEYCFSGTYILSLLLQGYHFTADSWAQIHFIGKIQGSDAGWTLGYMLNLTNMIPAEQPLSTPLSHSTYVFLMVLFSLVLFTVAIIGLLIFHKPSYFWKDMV

CD39 mutant 6 (human) = target: T4, CD39 mutant 6 (human) (UniProt P49961)
T4 sequence: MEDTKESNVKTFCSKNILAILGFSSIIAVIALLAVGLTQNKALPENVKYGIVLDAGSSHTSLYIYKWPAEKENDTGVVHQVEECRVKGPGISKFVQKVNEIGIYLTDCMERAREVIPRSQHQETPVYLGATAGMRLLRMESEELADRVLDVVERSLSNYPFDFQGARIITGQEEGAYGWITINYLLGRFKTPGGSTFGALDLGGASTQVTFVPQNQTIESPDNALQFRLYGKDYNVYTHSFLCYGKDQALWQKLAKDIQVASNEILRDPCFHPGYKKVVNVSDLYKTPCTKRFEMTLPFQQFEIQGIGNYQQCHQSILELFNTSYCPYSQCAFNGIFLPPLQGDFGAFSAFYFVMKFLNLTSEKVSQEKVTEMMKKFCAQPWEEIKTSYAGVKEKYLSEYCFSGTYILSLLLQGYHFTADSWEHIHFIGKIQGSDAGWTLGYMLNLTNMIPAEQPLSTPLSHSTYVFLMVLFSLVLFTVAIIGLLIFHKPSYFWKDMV

CD39 mutant 8 (human) = target: T5, CD39 mutant 8 (human) (UniProt P49961)
T5 sequence: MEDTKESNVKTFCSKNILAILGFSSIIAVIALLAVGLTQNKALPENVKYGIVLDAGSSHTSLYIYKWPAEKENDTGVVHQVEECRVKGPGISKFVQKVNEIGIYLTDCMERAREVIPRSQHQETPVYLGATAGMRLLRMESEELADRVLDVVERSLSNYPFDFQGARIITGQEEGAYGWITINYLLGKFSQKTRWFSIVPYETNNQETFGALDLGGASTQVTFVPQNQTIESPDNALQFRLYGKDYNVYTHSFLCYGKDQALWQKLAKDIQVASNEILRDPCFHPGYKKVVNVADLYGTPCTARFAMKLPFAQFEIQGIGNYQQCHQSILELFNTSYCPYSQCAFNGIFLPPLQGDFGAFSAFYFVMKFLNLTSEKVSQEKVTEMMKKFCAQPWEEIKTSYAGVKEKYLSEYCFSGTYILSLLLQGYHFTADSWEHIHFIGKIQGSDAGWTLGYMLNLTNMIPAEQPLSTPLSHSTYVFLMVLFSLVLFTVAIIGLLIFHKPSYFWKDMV

Measured: binding

B1: antibody I-399 (antibody, V domains shown)
VH: PVQLQQPGAEVVMPGASVKLSCKASGYTFTSFWMNWMRQRPGQGLEWIGEIDPSDFYTNSNQRFKGKATLTVDKSSSTAYMQLSSLTSEDSAVYFCARGDFGWYFDVWGTGTSVTVSS
VL: EIVLTQSPTTMTSSPGEKITFTCSASSSINSNYLHWYQQKPGFSPKLLIYRTSNLASGVPTRFSGSGSGTSYSLTIGTMEAEDVATYYCQQGSSLPRTFGGGTKLEIK
binds: all assays above

From patent US20190218304A1, “POTENTIATING THE EFFECT OF ATP RELEASE” (INNATE PHARMA, priority 2017, published 2019)
